Measured values reported in PubChem BioAssay AID540276 (National Center for Advancing Translational Sciences (NCATS), 2011).
Several values for one entry are separate records, joined by “and”; a condition that tells them apart may be missing. Equal values may be shown once. The campaign covered roughly 300,000 compounds. About 5,400 (1.8%) were called active. This list was built around the results that the source calls inconclusive (neither active nor inactive); the mix of calls is not that of the screen. Calls come from the whole dose curve; tested in HEK293 cells. A potency beside an inconclusive call is a rough fit, not a confirmed value.

assay: qHTS for inhibitors of binding or entry into cells for Marburg Virus; settings: Marburg virus pseudotyped entry inhibition, cell reporter; activity change, negative = inhibition: at 37.8 µM (top of the series) unless noted
% is set by controls: 0 for no effect and ±100 for the full control effect; potency is the fitted concentration of half-maximal effect.

Row | SMILES | Potency | activity change, negative = inhibition
1 | O=C(NCC1CCCO1)c1ccc(N2CCCCC2)c([N+](=O)[O-])c1 (stereo unspecified) | inconclusive: 0.631 µM [activator, full curve, poor fit] | –
2 | COc1ccc(C2=NOC(C(=O)Nc3ccc(C(C)=O)cc3)C2)cc1OC (stereo unspecified) | – | inactive: 6.11%
3 | Cc1ccc(C(C)C)cc1OCC(=O)N/N=C/c1ccc2c(c1)OCCO2 | inconclusive: 14.1 µM [inhibitor, partial curve, poor fit] | –
4 | Cn1nnnc1Sc1ncnc2scc(-c3ccc(F)cc3)c12 | active: 8.2 µM | –
5 | COc1ccccc1-c1nc(-c2ccncc2)no1 | inconclusive: 29.1 µM [inhibitor, single point] | –
6 | CC(=O)c1ccc(NC(=O)CCSc2nc(-c3ccco3)cc(C(F)(F)F)n2)cc1 | inconclusive: 5.62 µM [inhibitor, single point] | –
7 | COc1cc(Cl)cc(C2NC(=S)NC(c3ccccc3)=C2C(C)=O)c1OCC(=O)O (stereo unspecified) | – | inactive: 22.5% [at 46.1 µM]
8 | CC(=O)N1CCC(C(=O)Nc2ccc(S(=O)(=O)N3CCCCC3)cc2)CC1 | inconclusive: 25.1 µM [activator, partial curve, poor fit] | –
9 | O=C(NCCCN1CCCC1=O)c1ccc2c(=O)n(Cc3ccco3)c(=S)[nH]c2c1 | inconclusive: 35.5 µM [inhibitor, single point] | –
10 | Cc1cc2cc(CN(Cc3nnnn3C3CCCCC3)CC3CCCO3)c(=O)[nH]c2cc1C (stereo unspecified) | inactive and inconclusive: 8.2 µM [inhibitor, partial curve, poor fit] | –
11 | CSc1ccccc1C(=O)NCCSC(C)(C)C | – | inactive: -0.0976%
12 | Cc1nnc(SCc2ccccc2)n(N)c1=O | inconclusive: 0.447 µM [activator, partial curve, poor fit] | –
13 | Cc1nc(NC(=O)CSc2ccc(-c3nc4ccccc4[nH]3)cn2)sc1C | inconclusive: 35.5 µM [inhibitor, single point] | –
14 | O=C(CSc1ncnc2c1nnn2Cc1ccccc1F)NCC1CCCO1 (stereo unspecified) | inconclusive: 31.6 µM [inhibitor, single point] | –
15 | C/C=C(\C)C(=O)OC1c2c(ccc3ccc(=O)oc23)OC(C)(C)C1OC(C)=O (stereo unspecified) | – | inactive: -21.7%
16 | CN(C)c1nc(Nc2ccc(Cl)c(Cl)c2)nc(N(C)C)n1 | inconclusive: 7.94 µM [inhibitor, partial curve, poor fit] | –
17 | CCOC(=O)c1cnn2c(C(F)(F)F)cc(-c3ccccc3)nc12 | inconclusive: 18.3 µM [inhibitor, partial curve, poor fit] | –
18 | Cc1ccccc1-c1nsc(SCC(=O)Nc2ccc3c(c2)OCO3)n1 | inconclusive: 5.62 µM [activator, single point] | –
19 | O=C(Nc1ccc(F)cc1)Nc1nnc(-c2ccco2)s1 | inconclusive: 5.01 µM [activator, partial curve, poor fit] | –
20 | O=C(Cc1ccc(NS(=O)(=O)c2ccc(Cl)c(Cl)c2)cc1)NCCN1CCOCC1 | – | inactive: 1.08%
21 | Cc1ccc(NC(=O)/C(C#N)=C/c2ccc(Sc3nc(C)cc(C)n3)o2)cc1 | inconclusive: 5.17 µM [inhibitor, full curve, poor fit] | –

Row | SMILES | Potency | activity change, negative = inhibition
22 | CCC(C)(C)NC(=O)CN(C(=O)C(=O)Nc1ccc2c(c1)OCCO2)C1CC1 | inconclusive: 17.8 µM [activator, single point] | –
23 | COc1ccc(NC(=S)NC(=O)CC(C)C)c(OC)c1 | inconclusive: 2.24 µM [inhibitor, single point] | –
24 | COc1ccc(Cl)cc1NC(=O)COC(=O)Cc1cccs1 | inconclusive: 2.51 µM [activator, partial curve, poor fit] | –
25 | CC(OC(=O)c1ccccc1CCc1ccccc1)C(N)=O (stereo unspecified) | inconclusive: 5.62 µM [inhibitor, partial curve, poor fit] | –
26 | CCCCn1c(N)c(N(CCOC)C(=O)COC(=O)CSc2cc(C)c3ccccc3n2)c(=O)[nH]c1=O | – | inactive: 8.5% [at 46.1 µM]
27 | COCC(C)n1c(SCC(=O)N2CCc3ccccc3C2)nc2ccccc2c1=O (stereo unspecified) | inconclusive: 20 µM [inhibitor, partial curve, poor fit] | –
28 | CSCCC(NS(=O)(=O)c1ccccc1F)C(=O)NC(C)c1ccccc1 (stereo unspecified) | – | inactive: -9.26% [at 46.1 µM]
29 | O=C1c2ccccc2C2(c3ccccc3)N1CCN2C(=O)C(Cl)(Cl)Cl (stereo unspecified) | inconclusive: 7.94 µM [inhibitor, partial curve, poor fit] | –
30 | COc1ccc(C)cc1N(CC(=O)Nc1cccnc1)S(=O)(=O)c1ccc(C)cc1 | inconclusive: 35.5 µM [inhibitor, single point] | –
31 | CS(=O)(=O)N1CCN(c2ccccc2NC(=S)NC(=O)c2ccccc2[N+](=O)[O-])CC1 | – | inactive: -18.8% [at 46.1 µM]
32 | Cc1ccc(-n2nc(C)c(NC(=O)CCl)c2C)cc1 | inconclusive: 2.82 µM [inhibitor, full curve, poor fit] | –
33 | COc1cc(C2c3c([nH]c(=O)[nH]c3=O)Nc3ccc4ccccc4c32)ccc1O (stereo unspecified) | inconclusive: 6.51 µM [inhibitor, partial curve, poor fit] | –
34 | Cc1nc(SCC(=O)N2CC(=O)Nc3ccccc32)c2c(C)c(C)sc2n1 | inconclusive: 29.1 µM [inhibitor, single point] | –
35 | COc1ccc(-c2cc(-c3ccccc3)n3ncnc3n2)cc1 | inconclusive: 17.8 µM [inhibitor, partial curve, poor fit] | –
36 | CCn1c(CSc2nc3ccccc3s2)nnc1SCC(=O)c1ccc(Cl)cc1 | inconclusive: 0.1 µM [activator, full curve, poor fit] | –
37 | Cc1ccc(S(=O)(=O)N(C)CC(=O)NNC(=O)Cc2cccc(F)c2)cc1 | inconclusive: 1.41 µM [inhibitor, partial curve, poor fit] | –
38 | CCCCSc1nc2c([nH]1)c(=O)n(C)c(=S)n2C | inconclusive: 5.62 µM [inhibitor, single point] | –
39 | O=C(Nc1cccc(C(=O)N2CCN(Cc3ccccc3)CC2)c1)c1ccccc1 | – | inactive: -9.8%
40 | COc1ccc(C(=O)N2CCN(Cc3ccccc3C)CC2)cc1OC | inconclusive: 35.5 µM [inhibitor, single point] | –
41 | COc1cc(CNCCO)cc(Cl)c1OCc1ccc(Cl)cc1Cl | inconclusive: 15.8 µM [inhibitor, partial curve, poor fit] | –

Records 34 to 35 from above:
Row | SMILES | Potency | activity change, negative = inhibition
34 | Cc1nc(SCC(=O)N2CC(=O)Nc3ccccc32)c2c(C)c(C)sc2n1 | inconclusive: 29.1 µM [inhibitor, single point] | –
35 | COc1ccc(-c2cc(-c3ccccc3)n3ncnc3n2)cc1 | inconclusive: 17.8 µM [inhibitor, partial curve, poor fit] | –
